Measurements taken from PubChem BioAssay AID248 (DTP/NCI, 2004).
The list is a part of this screen's results and no random one: it is rich in T/C values a quarter to a half above the control, in often repeated tests (any T/C) and in doses without a T/C. Other doses and runs of a compound stand elsewhere. T/C gives the treated animals as a percentage of the vehicle group. Some entries give survivors of the animals treated and no T/C: the source files T/C as zero there, which appears to mark a toxic dose or a test without result, not a measured value. Some survivor counts are full or nearly so, which does not show that the dose was tolerated: the source hardly ever lists a survival T/C far under the control, and the zero likely stands for such cases as well. Survivors were counted at the toxicity check, usually on the fifth day, unless a day is given; later deaths do not show. Schedules are NCI's codes, taken here to give the interval after Q, in days (D) or hours (H), and the number of doses after X. Some schedules carry Z or #; the key to these is not given. For survival time, this PubChem deposit counts one and a half times the control or more as active, and values a quarter to a half above the control carry no call in these data; other NCI protocols may use other cut-offs.

Tested on: L1210 leukemia ip in BDF1 mice, survival T/C
Assay: NCI In Vivo Anticancer Drug Screen. Data for tumor model L1210 Leukemia (intraperitoneal) in B6D2F1 (BDF1) mice
Conditions: T/C endpoint: mean survival time, higher T/C = longer survival
[1] = dose: 400.0 mg/kg/injection, schedule: Q01DX001 (ip), vehicle: saline
[2] = dose: 400.0 mg/kg/injection, schedule: Q04DX003 (ip), vehicle: saline

Which results are given for `CCOP(=O)(OCC)N1C(=O)CCC1=O`?
survivor count (dose: 55.0 mg/kg/injection, schedule: Q01DX009 (ip), vehicle: saline): 0 of 6; survivor count (dose: 80.0 mg/kg/injection, schedule: Q04DX003 (ip), vehicle: saline): 1 of 6

Which survivor count (dose: 400.0 mg/kg/injection, schedule: Q04DX002 (ip), vehicle: Klucel (hydroxypropylcellulose) (HPC)) does the source give for `O=C(O)c1cc(Br)c(Cl)c(Br)c1` here?
The survivor count was 1 of 3.

How did the survivor count (dose: 200.0 mg/kg/injection, schedule: Q04DX003 (ip), vehicle: acetone) turn out when `N#Cc1ccsc1C#N` was run?
Its survivor count is 6 of 6.

And the survivor count (dose: 400.0 mg/kg/injection, schedule: Q04DX003 (ip), vehicle: acetone)?
The survivor count was 5 of 6.

With `COC(CN(C)C(=O)NC1CCCCC1)OC` as the compound, how does the survivor count (dose: 400.0 mg/kg/injection, schedule: Q01DX009 (ip), vehicle: saline with Tween-80) read?
Its survivor count is 3 of 6.

For `O=C1C=CC(=O)N1c1ccc2c(c1)oc(=O)c1ccccc12`, which survivor count (dose: 75.0 mg/kg/injection, schedule: Q01DX009 (ip), vehicle: saline with Tween-80) is on record?
The survivor count was 3 of 6.

And the survivor count (dose: 150.0 mg/kg/injection, schedule: Q01DX009 (ip), vehicle: saline with Tween-80)?
The survivor count was 2 of 6.

What about the survivor count [1] of the same compound?
Its survivor count is 1 of 6.

`O=C1C=C(N2CC2)c2ccccc2C1=O` was tested. Which survivor count (dose: 40.0 mg/kg/injection, schedule: Q01DX001 (ip), vehicle: Klucel (hydroxypropylcellulose) (HPC)) did it give?
Its survivor count is 2 of 6.

What about the survivor count (dose: 40.0 mg/kg/injection, schedule: Q01DX009 (ip), vehicle: Klucel (hydroxypropylcellulose) (HPC)) of the same compound?
Its survivor count is 3 of 6.

And the survivor count (dose: 80.0 mg/kg/injection, schedule: Q01DX001 (ip), vehicle: Klucel (hydroxypropylcellulose) (HPC))?
Its survivor count is 0 of 6.

And the survivor count (dose: 100.0 mg/kg/injection, schedule: Q01DX001 (ip), vehicle: Klucel (hydroxypropylcellulose) (HPC))?
Its survivor count is 0 of 6.

And the survivor count (dose: 200.0 mg/kg/injection, schedule: Q01DX001 (ip), vehicle: Klucel (hydroxypropylcellulose) (HPC))?
The survivor count was 0 of 6.

And the survivor count (dose: 400.0 mg/kg/injection, schedule: Q01DX001 (ip), vehicle: Klucel (hydroxypropylcellulose) (HPC))?
Its survivor count is 0 of 6.

Which survivor count [2] does the source give for `Cn1nnc(CC[N+]2(C)CCOCC2)n1` here?
The survivor count was 1 of 6.

Which survivor count [2] does the source give for `COc1ccc(CCNC(=S)NCCc2ccc(OC)c(OC)c2)cc1OC` here?
Its survivor count is 6 of 6.

Which survivor count [2] does the source give for `COC1C(=O)CCC2(CO2)C1(O)C1(C)OC1CC=C(C)C` (stereo not given) here?
Its survivor count is 6 of 6.

How did the survivor count (dose: 100.0 mg/kg/injection, schedule: Q04DX003 (ip), vehicle: saline with Tween-80) turn out when `c1cc[c]([Pb]([c]2ccccc2)([c]2ccccc2)[n]2cccc2)cc1` was run?
The survivor count was 5 of 6.

And the survivor count (dose: 200.0 mg/kg/injection, schedule: Q04DX003 (ip), vehicle: saline with Tween-80)?
The survivor count was 0 of 6.

And the survivor count (dose: 400.0 mg/kg/injection, schedule: Q04DX003 (ip), vehicle: saline with Tween-80)?
The survivor count was 0 of 6.

How did the survivor count (dose: 200.0 mg/kg/injection, schedule: Q01DX001 (ip), vehicle: saline) turn out when `CSc1nn(C)c[n+]1-c1ccccc1` was run?
The survivor count was 2 of 6.

And the survivor count [1]?
Its survivor count is 0 of 6.

Which survivor count (dose: 100.0 mg/kg/injection, schedule: Q01DX009 (ip), vehicle: Klucel (hydroxypropylcellulose) (HPC)) does the source give for `CCOc1ccc(NC(=O)Nc2cccc(F)c2)cc1` here?
The survivor count was 5 of 6.

What about the survivor count (dose: 400.0 mg/kg/injection, schedule: Q01DX009 (ip), vehicle: Klucel (hydroxypropylcellulose) (HPC)) of the same compound?
Its survivor count is 6 of 6.

What does the source list for `Nc1nc(SCc2ccncc2)c2[nH]cnc2n1`?
T/C (dose: 267.0 mg/kg/injection, schedule: Q01DX001 (ip), vehicle: saline): 135 % of control; T/C [1]: 147 % of control; survivor count (dose: 600.0 mg/kg/injection, schedule: Q01DX001 (ip), vehicle: saline): 0 of 6

How did the survivor count (dose: 400.0 mg/kg/injection, schedule: Q04DX003 (ip), vehicle: Klucel (hydroxypropylcellulose) (HPC)) turn out when `c1ccc(CNCc2ccccc2)cc1` was run?
The survivor count was 0 of 6.

For `CCN=C(NCC)c1ccc(NC(=O)c2ccc(C(=O)Nc3ccc(C(=NCC)NCC)cc3)cc2)cc1`, which T/C (dose: 3.75 mg/kg/injection, schedule: Q01DX Z (ip), vehicle: saline) is on record?
Its T/C is 134 % of control.

What about the survivor count (dose: 30.0 mg/kg/injection, schedule: Q01DX Z (ip), vehicle: saline) of the same compound?
The survivor count was 6 of 6.

And the survivor count (dose: 60.0 mg/kg/injection, schedule: Q01DX Z (ip), vehicle: saline)?
Its survivor count is 0 of 6.

What about the survivor count (dose: 120.0 mg/kg/injection, schedule: Q01DX Z (ip), vehicle: saline) of the same compound?
The survivor count was 0 of 6.

And the T/C (dose: 500.0 mg/kg/injection, schedule: Q## X010 (oral), vehicle: saline)?
Its T/C is 129 % of control.

For `Cc1ccc(C(=O)n2c(Cl)c(/C=N/NC(N)=S)c3ccccc32)cc1`, which survivor count (dose: 200.0 mg/kg/injection, schedule: Q04DX002 (ip), vehicle: Klucel (hydroxypropylcellulose) (HPC)) is on record?
Its survivor count is 1 of 3.
